Data taken from the supplement of paper PMC3334620.
The full ranking holds about 33,000 sequences; the median of “E-score (-0.5 to 0.5)” is about -0.0014, and the highest 2% start at about 0.25. This is one part of the list.

What follows are sequences tested against T1, Cad1 (UniProt P24813) (assay: PBM E-score (8-mer binding enrichment) (E-score (-0.5 to 0.5)); higher = stronger / more preferred TF binding). Conditions: protein concentration: 100 nM; construct: GST-full length.
T1 sequence: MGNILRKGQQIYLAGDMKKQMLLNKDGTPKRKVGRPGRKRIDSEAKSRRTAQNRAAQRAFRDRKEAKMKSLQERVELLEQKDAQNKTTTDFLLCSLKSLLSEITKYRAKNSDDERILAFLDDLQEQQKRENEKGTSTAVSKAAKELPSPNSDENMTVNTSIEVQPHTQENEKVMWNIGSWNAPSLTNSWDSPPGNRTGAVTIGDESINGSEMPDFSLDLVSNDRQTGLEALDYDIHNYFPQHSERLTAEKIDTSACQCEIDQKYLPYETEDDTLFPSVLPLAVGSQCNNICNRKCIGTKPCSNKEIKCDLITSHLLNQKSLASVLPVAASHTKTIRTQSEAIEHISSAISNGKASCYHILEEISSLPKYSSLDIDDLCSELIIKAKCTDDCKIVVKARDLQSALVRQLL
Summary of the method: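 Masliner-normalised scans of fluorescent anti-GST signal were the basis for scoring. That signal came from GST-tagged yeast transcription factors applied at about 100-200 nM to double-stranded universal all-10-mer Agilent arrays on fresh or once-stripped slides. Each ungapped eight-base word, pooled with its reverse complement, received an E-score from the Universal PBM Analysis Suite.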

Row | Sequence | PBM E-score
1 | AGCAGCCA | -0.0686
2 | CAAGAAAA | 0.143
3 | CAATGGAG | -0.128
4 | TACCCGCA | 0.0306
5 | AGTCACCG | -0.0721
6 | GCTTACAA | 0.308
7 | AGCCTCGA | 0.00096
8 | AAAGGGAT | -0.0646
9 | AGAAAGCC | -0.051
10 | CGTTCTAC | -0.148
11 | ACCCGCGG | 0.167
12 | CTCTCCTC | -0.352
13 | AAAGGGAA | -0.205
14 | GGGGGAAA | -0.152
15 | CTAAATGC | 0.0465
16 | CAAATACG | 0.191
17 | CGGGGTTC | -0.0658
18 | AACGAATG | 0.199
19 | CAGTATAC | 0.0126
20 | CGCCGAGC | -0.0246
21 | CCTTGTGC | -0.242
22 | GAGGTTAC | -0.0416
23 | CGTAGACA | -0.064
24 | TGCCCCAA | -0.0102
25 | GAAAATAC | 0.121

Row | Sequence | PBM E-score
26 | GGAGCCCC | -0.216
27 | CAAAGAGC | -0.0525
28 | CTTTTCAA | 0.0868
29 | ATTCAGCA | 0.13
30 | GGCGCCCA | 0.089
31 | CTGGTGGA | -0.0943
32 | AAATCATG | 0.182
33 | CCGTAAAG | 0.0405
34 | TCCCCCGA | -0.369
35 | ATACTGAG | 0.164
36 | CATGTCAC | 0.0823
37 | AATCGATG | 0.271
38 | AAAGGTAC | 0.0692
39 | ATGCGAAG | 0.0556
40 | CCAAAATA | 0.147
41 | GATGGTTA | -0.0274
42 | CAGACAAG | 0.115
43 | AAATCGAA | -0.156
44 | CCAGGAGG | -0.168
45 | CAGGCCAG | 0.104
46 | AGGTTGCA | 0.159
47 | ATCCGAGG | 0.0713
48 | CAACAGAA | -0.107
49 | ATTAGAAG | -0.0342
50 | GCTCCGCC | -0.0179

Row | Sequence | PBM E-score
51 | ACTGTTAG | -0.0202
52 | AGTCTACC | -0.0892
53 | AGGGACCA | -0.242
54 | GCATAGAC | -0.0038
55 | AGAAACAT | 0.0746
56 | ACGTTCGG | -0.209
57 | GCACGAGC | -0.0959
58 | CGAAGTGA | 0.0764
59 | ACAAGTGA | -0.155
60 | CACTAACC | 0.0546
61 | AGGACAGC | 0.00989
62 | GACACCCC | -0.265
63 | AGCGCGCC | 0.082
64 | GCGTACTA | 0.0803
65 | ATGAGCAA | 0.0977
66 | AAGACGAT | 0.0121
67 | CCAACGGA | -0.11
68 | ACCGCGTA | 0.0865
69 | AACGATCT | 0.0386
70 | GCTACTCA | -0.0295
71 | ATACAGGA | 0.182
72 | AGCGCACT | -0.0706
73 | ACCATCGG | -0.248
74 | CTCAACTC | 0.14
75 | CCGGTCAC | -0.0687

Row | Sequence | PBM E-score
76 | AGAAACTC | -0.0188
77 | CAACTTTC | 0.0512
78 | GAGAGGTA | -0.259
79 | CGGTGCAG | -0.082
80 | ACCTCTAC | 0.0344
81 | GGACCCCA | -0.0361
82 | CTCTTTGC | -0.0833
83 | AACAGTTC | 0.126
84 | GTTAACAA | 0.164
85 | GAAGAGAA | 0.0123
86 | ATAGGAGC | -0.203
87 | AATTTCGA | 0.116
88 | AAGACGGA | 0.0167
89 | TATCTGAA | 0.00867
90 | CTCGACCC | -0.00772
91 | CCTAATTC | -0.115
92 | ATAGGCTA | -0.0705
93 | AAAAACCG | 0.128
94 | TGCAGGAA | 0.0783
95 | GTAGATTA | 0.219
96 | CTAGACAC | 0.00544
97 | CGATGAAA | 0.0557
98 | AGATGCCT | -0.147
99 | CAAATCAC | 0.0907
100 | AGTAAACG | 0.0285

Row | Sequence | PBM E-score
101 | CATATGGG | 0.137
102 | GCCGTCCC | -0.236
103 | CCGATTAA | 0.159
104 | GTCGCACA | -0.0519
105 | GCGCCAAA | 0.103
106 | CCTCGGAC | 0.0537
107 | ACTCGACG | 0.0798
108 | GCCTCCGC | -0.105
109 | ACATCGTC | 0.19
110 | CATTGTCC | 0.104
111 | AATACTTC | 0.158
112 | CGTAACCC | -0.0539
113 | AACAGGAA | -0.104
114 | CCAGTCCA | -0.251
115 | CCCAAATC | -0.139
116 | CATCTGTC | -0.134
117 | AGCTGCAG | 0.0911
118 | GTTTTAGA | 0.0184
119 | CCTAAAGG | -0.194
120 | CCAGGATC | 0.037
121 | ATCACTCG | 0.0231
122 | AGCAGGTC | 0.054
123 | AGACTGCA | -0.193
124 | CACTAGGA | -0.277
125 | TATTGGCA | 0.0632

Row | Sequence | PBM E-score
126 | AAGCACTA | -0.0887
127 | TCGCCCCA | -0.156
128 | AACTACGA | 0.0336
129 | GCTCCTTA | -0.0502
130 | CCCGAGCC | -0.22
131 | CTAACACA | 0.249
132 | CCACTACC | -0.0942
133 | CCTCCGAC | -0.155
134 | GGAGCGCC | -0.252
135 | CTATTATA | 0.068
136 | ATGTTAGA | -0.06
137 | AAGCCAAG | -0.155
138 | CATCGATG | 0.169
139 | ATAGTACG | 0.0814
140 | ATTGGACA | 0.139
141 | CAATGATC | -0.0359
142 | CACACGGA | -0.0635
143 | GGGCTACC | -0.114
144 | CTGCGACA | 0.113
145 | CCTTACCG | -0.0548
146 | ATATTGTA | 0.0624
147 | CTCAAGAG | -0.316
148 | AGCTCTAA | -0.0645
149 | AGCATGCA | 0.00687
150 | AGACACCT | -0.157

Reprinted: nos. 106–150
Row | Sequence | PBM E-score
106 | CCTCGGAC | 0.0537
107 | ACTCGACG | 0.0798
108 | GCCTCCGC | -0.105
109 | ACATCGTC | 0.19
110 | CATTGTCC | 0.104
111 | AATACTTC | 0.158
112 | CGTAACCC | -0.0539
113 | AACAGGAA | -0.104
114 | CCAGTCCA | -0.251
115 | CCCAAATC | -0.139
116 | CATCTGTC | -0.134
117 | AGCTGCAG | 0.0911
118 | GTTTTAGA | 0.0184
119 | CCTAAAGG | -0.194
120 | CCAGGATC | 0.037
121 | ATCACTCG | 0.0231
122 | AGCAGGTC | 0.054
123 | AGACTGCA | -0.193
124 | CACTAGGA | -0.277
125 | TATTGGCA | 0.0632
126 | AAGCACTA | -0.0887
127 | TCGCCCCA | -0.156
128 | AACTACGA | 0.0336
129 | GCTCCTTA | -0.0502
130 | CCCGAGCC | -0.22
131 | CTAACACA | 0.249
132 | CCACTACC | -0.0942
133 | CCTCCGAC | -0.155
134 | GGAGCGCC | -0.252
135 | CTATTATA | 0.068
136 | ATGTTAGA | -0.06
137 | AAGCCAAG | -0.155
138 | CATCGATG | 0.169
139 | ATAGTACG | 0.0814
140 | ATTGGACA | 0.139
141 | CAATGATC | -0.0359
142 | CACACGGA | -0.0635
143 | GGGCTACC | -0.114
144 | CTGCGACA | 0.113
145 | CCTTACCG | -0.0548
146 | ATATTGTA | 0.0624
147 | CTCAAGAG | -0.316
148 | AGCTCTAA | -0.0645
149 | AGCATGCA | 0.00687
150 | AGACACCT | -0.157

Further results.

Row | Sequence | PBM E-score
151 | CACTAATA | 0.183
152 | ATAGTTAG | 0.119
153 | GTATTGTA | 0.141
154 | TAGGATGA | 0.0206
155 | ATGTAGAC | -0.145
156 | ACCGCAGC | -0.0641
157 | ACGCAGAA | 0.122
158 | ACAATTGA | 0.222
159 | GTTTAAGA | -0.145
160 | CCCGCTCG | -0.256
161 | CTCTCAGC | -0.178
162 | AGTTTGAA | 0.073
163 | ATACCAGG | 0.056
164 | AGATTAAC | -0.0123
165 | CCACGGGC | -0.107
166 | CGTATGAC | 0.00313
167 | ATAATCAG | 0.225
168 | CATGGGTA | -0.202
169 | GATGAAGC | -0.0387
170 | GGCTCGAA | 0.0808
171 | TCTACCCA | 0.0629
172 | GAGGACCC | -0.144
